From doi:10.1101/2024.03.27.587014
Results are given in words; binding and its absence hold for the method and conditions named. Binding seen in cells or lysates may run through a third protein. A yes stands for co-enrichment or nearness to the bait. Other partners may have been found.

Amino acid sequences for entries named in this document (tags omitted).
UniProt O81098: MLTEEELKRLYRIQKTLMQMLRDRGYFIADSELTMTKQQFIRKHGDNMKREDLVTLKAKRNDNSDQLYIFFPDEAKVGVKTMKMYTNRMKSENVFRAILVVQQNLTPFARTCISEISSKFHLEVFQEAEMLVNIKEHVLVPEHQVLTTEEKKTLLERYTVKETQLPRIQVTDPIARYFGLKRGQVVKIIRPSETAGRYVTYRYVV

Biological target: T1, GS^rhino-PFD6 (Arabidopsis) (UniProt Q2HIK4)
T1 sequence: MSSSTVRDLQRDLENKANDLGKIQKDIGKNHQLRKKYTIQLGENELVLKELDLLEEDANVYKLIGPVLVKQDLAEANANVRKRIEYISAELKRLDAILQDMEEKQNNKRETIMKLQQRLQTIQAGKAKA
Assay: affinity purification with mass spectrometry

Substance	binding
NRPB5A (from UniProt O81098 1-205)	binds
NRPB5C	binds
